Source: the supplement of paper PMC8728848
Some of the results follow.

Experiments:
Experiment in all cases: glycan array binding signal (z-score within array); higher = stronger binding
Conditions in all cases: glycan notation: IUPAC condensed, linker removed
[1] = target: GlcNAc(b1-3)Gal(b1-4)GlcNAc(b1-3)Gal(b1-4)GlcNAc(b1-3)Gal(b1-4)GlcNAc(b1-3)Gal(b1-4)GlcNAc(b1-2)[GlcNAc(b1-3)Gal(b1-4)GlcNAc(b1-3)Gal(b1-4)GlcNAc(b1-3)Gal(b1-4)GlcNAc(b1-3)Gal(b1-4)GlcNAc(b1-6)]Man(a1-6)[GlcNAc(b1-3)Gal(b1-4)GlcNAc(b1-3)Gal(b1-4)GlcNAc(b1-3)Gal(b1-4)GlcNAc(b1-3)Gal(b1-4)GlcNAc(b1-2)Man(a1-3)]Man(b1-4)GlcNAc(b1-4)[Fuc(a1-6)]GlcNAc
Method in brief: (§1)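 Glycan array data came from 3228 arrays in the Consortium for Functional Glycomics database, and only arrays with an available protein sequence were kept. Glycan names were put into IUPAC-condensed notation, and columns mapping to the same glycan were averaged. The binding signal is a within-array Z-score, averaged across arrays of one protein sequence run at different concentrations or buffers and across linkers. A negative Z-score can be read as non-binding.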

[2] = target: GlcNAc(b1-3)Gal(b1-4)GlcNAc(b1-3)Gal(b1-4)GlcNAc(b1-3)GalNAc
Method in brief: as §1

[3] = target: GlcNAc(b1-3)Gal(b1-4)GlcNAc(b1-3)GalNAc
Method in brief: as §1

[4] = target: GlcNAc(b1-3)Gal(b1-4)GlcNAc(b1-3)[GlcNAc(b1-3)Gal(b1-4)GlcNAc(b1-3)]GalNAc
Method in brief: as §1

[5] = target: GlcNAc(b1-3)Gal(b1-4)GlcNAc(b1-6)[Gal(b1-3)]GalNAc
Method in brief: as §1

[6] = target: GlcNAc(b1-3)Gal(b1-4)GlcNAc(b1-6)[GlcNAc(b1-3)Gal(b1-3)]GalNAc
Method in brief: as §1

[7] = target: GlcNAc(b1-3)Gal(b1-4)GlcNAc(b1-6)[GlcNAc(b1-3)]Gal(b1-4)GlcNAc
Method in brief: as §1

[8] = target: GlcNAc(b1-3)GalNAc
Method in brief: as §1

[9] = target: GlcNAc(b1-3)Man
Method in brief: as §1

[10] = target: GlcNAc(b1-3)[GlcNAc(b1-4)][GlcNAc(b1-6)]GlcNAc
Method in brief: as §1

[11] = target: GlcNAc(b1-3)[GlcNAc(b1-6)]Gal(b1-4)GlcNAc
Method in brief: as §1

[12] = target: GlcNAc(b1-3)[GlcNAc(b1-6)]GalNAc
Method in brief: as §1

[13] = target: GlcNAc(b1-4)Gal(b1-4)GlcNAc
Method in brief: as §1

[14] = target: GlcNAc(b1-4)GlcNAc
Method in brief: as §1

[15] = target: GlcNAc(b1-4)GlcNAc(b1-4)GlcNAc
Method in brief: as §1

[16] = target: GlcNAc(b1-4)GlcNAc(b1-4)GlcNAc(b1-4)GlcNAc(b1-4)GlcNAc
Method in brief: as §1

[17] = target: GlcNAc(b1-4)GlcNAc(b1-4)GlcNAc(b1-4)GlcNAc(b1-4)GlcNAc(b1-4)GlcNAc
Method in brief: as §1

[18] = target: GlcNAc(b1-4)[GlcNAc(b1-6)]GalNAc
Method in brief: as §1

[19] = target: GlcNAc(b1-6)Gal(b1-4)GlcNAc
Method in brief: as §1

[20] = target: GlcNAc(b1-6)GalNAc
Method in brief: as §1

[21] = target: GlcNAc6S(b1-3)Gal(b1-4)GlcNAc
Method in brief: as §1

[22] = target: Kdn(a2-3)Gal(b1-3)GalNAc
Method in brief: as §1

[23] = target: Kdn(a2-3)Gal(b1-3)GlcNAc
Method in brief: as §1

[24] = target: Kdn(a2-3)Gal(b1-4)Glc
Method in brief: as §1

[25] = target: Kdn(a2-3)Gal(b1-4)GlcNAc
Method in brief: as §1

[26] = target: Kdn(a2-3)Gal(b1-4)[Fuc(a1-3)]GlcNAc
Method in brief: as §1

[27] = target: Kdn(a2-6)Gal(b1-4)GlcNAc
Method in brief: as §1

[28] = target: Man(a1-2)Man(a1-2)Man(a1-3)Man
Method in brief: as §1

[29] = target: Man(a1-2)Man(a1-2)Man(a1-6)[Man(a1-3)]Man
Method in brief: as §1

[30] = target: Man(a1-2)Man(a1-3)Man
Method in brief: as §1

[31] = target: Man(a1-2)Man(a1-3)[Man(a1-2)Man(a1-6)]Man
Method in brief: as §1

[32] = target: Man(a1-2)Man(a1-3)[Man(a1-2)Man(a1-6)]Man(a1-6)[Man(a1-2)Man(a1-2)Man(a1-3)]Man
Method in brief: as §1

[33] = target: Man(a1-2)Man(a1-3)[Man(a1-2)Man(a1-6)]Man(a1-6)[Man(a1-2)Man(a1-2)Man(a1-3)]Man(b1-4)GlcNAc(b1-4)GlcNAc
Method in brief: as §1

[34] = target: Man(a1-2)Man(a1-3)[Man(a1-6)]Man(a1-6)[Man(a1-2)Man(a1-3)]Man(b1-4)GlcNAc(b1-4)GlcNAc
Method in brief: as §1

[35] = target: Man(a1-2)Man(a1-6)[Man(a1-3)]Man(a1-6)[Man(a1-2)Man(a1-2)Man(a1-3)]Man
Method in brief: as §1

[36] = target: Man(a1-2)Man(a1-6)[Man(a1-3)]Man(a1-6)[Man(a1-2)Man(a1-2)Man(a1-3)]Man(b1-4)GlcNAc(b1-4)GlcNAc
Method in brief: as §1

[37] = target: Man(a1-3)[Man(a1-6)]Man
Method in brief: as §1

[38] = target: Man(a1-3)[Man(a1-6)]Man(a1-6)[Man(a1-2)Man(a1-3)]Man(b1-4)GlcNAc(b1-4)GlcNAc
Method in brief: as §1

[39] = target: Man(a1-3)[Man(a1-6)]Man(a1-6)[Man(a1-3)]Man
Method in brief: as §1

[40] = target: Man(a1-3)[Man(a1-6)]Man(a1-6)[Man(a1-3)]Man(b1-4)GlcNAc(b1-4)GlcNAc
Method in brief: as §1

[41] = target: Man(a1-3)[Man(a1-6)]Man(b1-4)GlcNAc(b1-4)GlcNAc
Method in brief: as §1

[42] = target: Man(a1-3)[Man(a1-6)]Man(b1-4)GlcNAc(b1-4)[Fuc(a1-6)]GlcNAc
Method in brief: as §1

[43] = target: Man(a1-6)Man
Method in brief: as §1

[44] = target: Man(b1-4)GlcNAc
Method in brief: as §1

[45] = target: MurNAc(b1-4)GlcNAc
Method in brief: as §1

B1: Drgal1 (Danio rerio) (protein)
chain: MAGVLIQNMSFKVGQTLTITGVPKPDSTNFAINIGHSPEDIALHMNPRFDAHGDQCTIVCNSFQSGSWCEEHRDDNFPFIQDKEFQIKITFTNEEFLVTLPDGSEIHFPNRQGSEKYKYMYFEGEVRIQGVEIK
glycan array binding signal (z-score) [1]: 1.89
glycan array binding signal (z-score) [2]: -0.106
glycan array binding signal (z-score) [3]: 0.021
glycan array binding signal (z-score) [4]: 0.223
glycan array binding signal (z-score) [5]: -0.519
glycan array binding signal (z-score) [6]: -0.558
glycan array binding signal (z-score) [7]: -0.239
glycan array binding signal (z-score) [8]: -0.42
glycan array binding signal (z-score) [9]: -0.309
glycan array binding signal (z-score) [10]: -0.321
glycan array binding signal (z-score) [11]: -0.445
glycan array binding signal (z-score) [12]: -0.32
glycan array binding signal (z-score) [13]: 0.178
glycan array binding signal (z-score) [14]: 0.013
glycan array binding signal (z-score) [15]: -0.352
glycan array binding signal (z-score) [16]: -0.191
glycan array binding signal (z-score) [17]: -0.903
glycan array binding signal (z-score) [18]: -0.352
glycan array binding signal (z-score) [19]: 0.599
glycan array binding signal (z-score) [20]: -0.014
glycan array binding signal (z-score) [21]: -0.074
glycan array binding signal (z-score) [22]: -0.094
glycan array binding signal (z-score) [23]: 0.176
glycan array binding signal (z-score) [24]: -0.466
glycan array binding signal (z-score) [25]: -0.245
glycan array binding signal (z-score) [26]: 0.062
glycan array binding signal (z-score) [27]: -0.406
glycan array binding signal (z-score) [28]: 0.145
glycan array binding signal (z-score) [29]: -0.589
glycan array binding signal (z-score) [30]: -0.564
glycan array binding signal (z-score) [31]: -0.092
glycan array binding signal (z-score) [32]: -0.28
glycan array binding signal (z-score) [33]: -0.507
glycan array binding signal (z-score) [34]: -1.37
glycan array binding signal (z-score) [35]: -0.535
glycan array binding signal (z-score) [36]: -0.178
glycan array binding signal (z-score) [37]: 0.311
glycan array binding signal (z-score) [38]: -0.075
glycan array binding signal (z-score) [39]: 0.529
glycan array binding signal (z-score) [40]: -0.199
glycan array binding signal (z-score) [41]: -0.585
glycan array binding signal (z-score) [42]: -0.037
glycan array binding signal (z-score) [43]: 1.43
glycan array binding signal (z-score) [44]: 0.616
glycan array binding signal (z-score) [45]: -0.654
